According to patent US6811972:
Results are given in words; binding and its absence hold for the method and conditions named. Some entries that bind do so weakly or less than the wild type.

By UniProt entry, the sequences of proteins in these tests, tags left out. Residues count along the entry.
UniProt P01579, residues 24-166: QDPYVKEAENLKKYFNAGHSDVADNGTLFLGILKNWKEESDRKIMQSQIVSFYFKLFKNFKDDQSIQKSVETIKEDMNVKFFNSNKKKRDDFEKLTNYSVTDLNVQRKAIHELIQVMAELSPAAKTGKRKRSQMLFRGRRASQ

Target: T1, human immune interferon (IFN-γ) receptor (human) (UniProt P15260)
T1 sequence (looked up): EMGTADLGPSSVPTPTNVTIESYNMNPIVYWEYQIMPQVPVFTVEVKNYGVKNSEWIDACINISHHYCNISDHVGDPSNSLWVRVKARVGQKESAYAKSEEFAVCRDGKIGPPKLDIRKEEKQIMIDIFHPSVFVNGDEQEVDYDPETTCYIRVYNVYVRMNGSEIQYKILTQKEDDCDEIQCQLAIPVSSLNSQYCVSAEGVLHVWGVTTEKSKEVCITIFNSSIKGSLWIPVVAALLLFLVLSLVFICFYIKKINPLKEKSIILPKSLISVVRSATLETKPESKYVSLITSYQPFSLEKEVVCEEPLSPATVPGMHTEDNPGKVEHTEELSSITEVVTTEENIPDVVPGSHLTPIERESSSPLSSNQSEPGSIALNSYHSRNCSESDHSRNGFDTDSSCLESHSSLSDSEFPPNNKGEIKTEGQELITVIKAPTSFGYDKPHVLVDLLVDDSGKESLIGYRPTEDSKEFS
Test: binding of labeled ligand to CREF-Trans 6 clones expressing the human IFN-γ receptor

- binding: binds
Substance: labeled IFN-γ (from UniProt P01579 24-166) (ligand)
